From paper PMC3218940
No constants are given. Whether binding was seen depends on the method and setting. Binding seen in cells or lysates may run through a third protein. Some binding calls cover weakened binding; strength is not graded here.

Chains of the proteins cited; added tags and fusions are not shown. Lines headed by an entry give the natural chain unless they say otherwise; changes in a name come on top.
UniProt P11388: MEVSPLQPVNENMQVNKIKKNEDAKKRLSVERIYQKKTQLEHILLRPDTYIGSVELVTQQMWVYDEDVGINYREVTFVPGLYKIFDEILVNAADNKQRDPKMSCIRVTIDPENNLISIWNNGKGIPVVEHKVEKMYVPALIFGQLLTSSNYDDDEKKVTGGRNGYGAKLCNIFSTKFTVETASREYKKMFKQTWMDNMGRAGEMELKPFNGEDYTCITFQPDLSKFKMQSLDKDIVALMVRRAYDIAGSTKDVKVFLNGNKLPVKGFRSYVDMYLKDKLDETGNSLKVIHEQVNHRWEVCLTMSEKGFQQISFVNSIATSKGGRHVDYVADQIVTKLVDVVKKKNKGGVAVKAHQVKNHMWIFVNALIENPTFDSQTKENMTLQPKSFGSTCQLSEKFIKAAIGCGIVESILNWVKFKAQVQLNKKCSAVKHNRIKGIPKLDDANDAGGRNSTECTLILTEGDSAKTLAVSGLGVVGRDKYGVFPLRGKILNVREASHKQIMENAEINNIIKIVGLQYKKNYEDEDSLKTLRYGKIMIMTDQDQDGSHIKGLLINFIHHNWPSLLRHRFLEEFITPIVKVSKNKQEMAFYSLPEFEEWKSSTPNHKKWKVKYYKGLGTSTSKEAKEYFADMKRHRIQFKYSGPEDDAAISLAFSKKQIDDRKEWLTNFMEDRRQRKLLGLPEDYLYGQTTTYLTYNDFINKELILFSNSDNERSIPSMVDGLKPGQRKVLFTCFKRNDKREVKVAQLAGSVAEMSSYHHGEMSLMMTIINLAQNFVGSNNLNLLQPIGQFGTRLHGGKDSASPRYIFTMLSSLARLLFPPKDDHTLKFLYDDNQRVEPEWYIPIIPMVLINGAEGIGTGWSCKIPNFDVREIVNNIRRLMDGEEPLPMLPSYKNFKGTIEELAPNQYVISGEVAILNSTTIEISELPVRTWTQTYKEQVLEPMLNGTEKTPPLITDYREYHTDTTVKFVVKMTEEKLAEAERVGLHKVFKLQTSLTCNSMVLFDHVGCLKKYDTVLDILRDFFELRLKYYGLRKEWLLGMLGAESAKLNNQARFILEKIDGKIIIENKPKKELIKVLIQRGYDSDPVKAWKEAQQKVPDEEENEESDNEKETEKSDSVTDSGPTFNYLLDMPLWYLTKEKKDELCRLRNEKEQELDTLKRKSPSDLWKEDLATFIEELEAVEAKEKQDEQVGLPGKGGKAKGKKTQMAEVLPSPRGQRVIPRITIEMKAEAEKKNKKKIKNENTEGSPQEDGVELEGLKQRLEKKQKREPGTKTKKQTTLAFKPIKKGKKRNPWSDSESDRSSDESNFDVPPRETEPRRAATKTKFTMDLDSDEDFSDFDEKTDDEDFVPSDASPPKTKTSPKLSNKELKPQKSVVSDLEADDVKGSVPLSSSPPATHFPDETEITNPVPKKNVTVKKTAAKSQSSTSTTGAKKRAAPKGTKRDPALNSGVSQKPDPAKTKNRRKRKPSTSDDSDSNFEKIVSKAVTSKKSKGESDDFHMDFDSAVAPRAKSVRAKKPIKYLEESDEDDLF
UniProt O00311: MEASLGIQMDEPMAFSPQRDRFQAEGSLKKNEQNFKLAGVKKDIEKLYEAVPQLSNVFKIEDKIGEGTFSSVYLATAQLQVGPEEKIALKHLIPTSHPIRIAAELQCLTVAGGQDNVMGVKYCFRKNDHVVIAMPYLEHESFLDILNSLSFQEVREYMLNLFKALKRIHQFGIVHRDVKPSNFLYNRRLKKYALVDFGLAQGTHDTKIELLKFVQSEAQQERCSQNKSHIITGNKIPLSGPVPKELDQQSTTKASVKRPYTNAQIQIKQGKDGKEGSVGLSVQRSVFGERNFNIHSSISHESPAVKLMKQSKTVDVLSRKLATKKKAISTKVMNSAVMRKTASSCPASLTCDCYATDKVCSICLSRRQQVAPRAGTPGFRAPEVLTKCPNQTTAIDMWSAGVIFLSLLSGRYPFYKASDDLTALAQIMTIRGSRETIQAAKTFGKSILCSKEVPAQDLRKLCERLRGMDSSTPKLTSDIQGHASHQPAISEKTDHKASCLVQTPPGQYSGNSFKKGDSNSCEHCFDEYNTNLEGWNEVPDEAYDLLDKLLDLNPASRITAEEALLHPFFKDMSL
UniProt P49792: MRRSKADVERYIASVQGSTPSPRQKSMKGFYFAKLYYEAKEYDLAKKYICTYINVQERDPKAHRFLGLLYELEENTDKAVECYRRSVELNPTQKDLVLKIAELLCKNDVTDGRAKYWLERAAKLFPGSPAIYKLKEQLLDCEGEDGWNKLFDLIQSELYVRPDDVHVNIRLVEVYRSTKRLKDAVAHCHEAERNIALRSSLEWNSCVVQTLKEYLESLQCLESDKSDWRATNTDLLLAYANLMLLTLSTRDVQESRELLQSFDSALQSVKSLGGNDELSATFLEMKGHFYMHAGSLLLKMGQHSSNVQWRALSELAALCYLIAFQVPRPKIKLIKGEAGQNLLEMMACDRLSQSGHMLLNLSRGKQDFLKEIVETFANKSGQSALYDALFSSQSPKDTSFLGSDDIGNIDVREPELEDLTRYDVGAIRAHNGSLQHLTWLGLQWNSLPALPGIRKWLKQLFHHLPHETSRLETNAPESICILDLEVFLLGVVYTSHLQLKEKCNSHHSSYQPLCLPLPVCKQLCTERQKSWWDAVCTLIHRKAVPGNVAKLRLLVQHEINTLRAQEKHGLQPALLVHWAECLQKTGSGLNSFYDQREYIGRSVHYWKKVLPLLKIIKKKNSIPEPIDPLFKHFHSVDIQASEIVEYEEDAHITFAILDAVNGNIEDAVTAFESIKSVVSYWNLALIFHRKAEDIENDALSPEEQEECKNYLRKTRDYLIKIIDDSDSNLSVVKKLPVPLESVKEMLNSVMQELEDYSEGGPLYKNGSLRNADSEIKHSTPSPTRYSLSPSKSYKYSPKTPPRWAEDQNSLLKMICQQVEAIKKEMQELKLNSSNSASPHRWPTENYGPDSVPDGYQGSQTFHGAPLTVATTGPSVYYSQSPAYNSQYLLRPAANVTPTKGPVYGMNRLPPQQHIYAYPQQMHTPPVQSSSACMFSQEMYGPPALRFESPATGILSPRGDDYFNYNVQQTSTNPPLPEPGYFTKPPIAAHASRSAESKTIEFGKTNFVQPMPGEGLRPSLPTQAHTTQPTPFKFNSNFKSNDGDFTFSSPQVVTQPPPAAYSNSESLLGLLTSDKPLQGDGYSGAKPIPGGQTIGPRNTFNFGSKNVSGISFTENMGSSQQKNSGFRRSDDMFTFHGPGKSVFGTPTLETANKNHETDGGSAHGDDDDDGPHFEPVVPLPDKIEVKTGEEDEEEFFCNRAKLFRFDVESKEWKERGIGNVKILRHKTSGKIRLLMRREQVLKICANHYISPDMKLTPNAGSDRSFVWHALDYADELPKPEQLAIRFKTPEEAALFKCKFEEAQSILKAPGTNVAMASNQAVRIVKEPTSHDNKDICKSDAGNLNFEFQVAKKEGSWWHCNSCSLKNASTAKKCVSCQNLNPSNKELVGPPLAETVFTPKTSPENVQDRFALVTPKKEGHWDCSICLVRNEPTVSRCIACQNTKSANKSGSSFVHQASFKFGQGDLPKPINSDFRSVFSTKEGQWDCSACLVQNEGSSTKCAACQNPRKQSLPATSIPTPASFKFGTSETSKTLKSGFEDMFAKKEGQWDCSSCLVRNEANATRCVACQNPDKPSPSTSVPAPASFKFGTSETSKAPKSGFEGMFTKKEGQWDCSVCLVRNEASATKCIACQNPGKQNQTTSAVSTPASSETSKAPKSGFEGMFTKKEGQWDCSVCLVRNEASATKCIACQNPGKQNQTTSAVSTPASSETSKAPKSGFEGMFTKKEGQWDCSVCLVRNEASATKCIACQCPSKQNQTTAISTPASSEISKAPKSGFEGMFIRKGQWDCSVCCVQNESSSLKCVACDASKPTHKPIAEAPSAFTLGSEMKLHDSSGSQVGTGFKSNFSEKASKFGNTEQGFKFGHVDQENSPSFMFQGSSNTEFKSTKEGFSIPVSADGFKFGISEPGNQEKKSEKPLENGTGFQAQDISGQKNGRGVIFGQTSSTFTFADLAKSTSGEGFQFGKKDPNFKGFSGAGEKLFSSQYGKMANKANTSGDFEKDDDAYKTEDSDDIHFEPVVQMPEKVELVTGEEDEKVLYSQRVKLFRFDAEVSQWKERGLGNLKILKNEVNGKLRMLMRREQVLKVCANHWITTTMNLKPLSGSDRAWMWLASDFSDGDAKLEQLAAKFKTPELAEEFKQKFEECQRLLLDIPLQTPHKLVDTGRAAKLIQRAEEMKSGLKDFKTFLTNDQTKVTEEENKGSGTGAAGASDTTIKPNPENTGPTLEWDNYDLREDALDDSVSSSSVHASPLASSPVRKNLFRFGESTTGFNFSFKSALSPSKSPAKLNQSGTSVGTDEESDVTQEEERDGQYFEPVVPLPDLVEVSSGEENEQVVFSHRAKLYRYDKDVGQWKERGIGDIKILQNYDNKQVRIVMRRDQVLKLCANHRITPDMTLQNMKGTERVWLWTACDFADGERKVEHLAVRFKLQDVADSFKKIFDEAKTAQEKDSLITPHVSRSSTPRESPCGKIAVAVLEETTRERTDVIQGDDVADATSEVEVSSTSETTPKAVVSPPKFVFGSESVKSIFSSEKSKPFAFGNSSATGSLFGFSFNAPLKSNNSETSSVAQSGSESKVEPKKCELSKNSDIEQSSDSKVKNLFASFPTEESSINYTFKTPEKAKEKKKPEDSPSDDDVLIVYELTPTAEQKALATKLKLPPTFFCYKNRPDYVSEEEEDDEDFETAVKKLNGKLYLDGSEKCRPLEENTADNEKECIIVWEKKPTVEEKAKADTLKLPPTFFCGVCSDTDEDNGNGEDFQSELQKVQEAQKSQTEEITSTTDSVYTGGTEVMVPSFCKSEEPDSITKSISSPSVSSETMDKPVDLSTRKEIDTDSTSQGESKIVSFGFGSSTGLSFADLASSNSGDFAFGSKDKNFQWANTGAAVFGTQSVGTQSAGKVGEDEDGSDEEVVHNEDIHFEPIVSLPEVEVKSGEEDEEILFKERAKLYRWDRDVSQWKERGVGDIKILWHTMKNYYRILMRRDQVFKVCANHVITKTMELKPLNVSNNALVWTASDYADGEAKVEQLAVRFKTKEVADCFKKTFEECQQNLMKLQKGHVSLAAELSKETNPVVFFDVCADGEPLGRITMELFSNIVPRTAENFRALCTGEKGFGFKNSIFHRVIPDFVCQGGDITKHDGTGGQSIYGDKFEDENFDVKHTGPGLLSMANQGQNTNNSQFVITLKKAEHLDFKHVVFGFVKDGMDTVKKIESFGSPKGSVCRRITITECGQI
UniProt P08047: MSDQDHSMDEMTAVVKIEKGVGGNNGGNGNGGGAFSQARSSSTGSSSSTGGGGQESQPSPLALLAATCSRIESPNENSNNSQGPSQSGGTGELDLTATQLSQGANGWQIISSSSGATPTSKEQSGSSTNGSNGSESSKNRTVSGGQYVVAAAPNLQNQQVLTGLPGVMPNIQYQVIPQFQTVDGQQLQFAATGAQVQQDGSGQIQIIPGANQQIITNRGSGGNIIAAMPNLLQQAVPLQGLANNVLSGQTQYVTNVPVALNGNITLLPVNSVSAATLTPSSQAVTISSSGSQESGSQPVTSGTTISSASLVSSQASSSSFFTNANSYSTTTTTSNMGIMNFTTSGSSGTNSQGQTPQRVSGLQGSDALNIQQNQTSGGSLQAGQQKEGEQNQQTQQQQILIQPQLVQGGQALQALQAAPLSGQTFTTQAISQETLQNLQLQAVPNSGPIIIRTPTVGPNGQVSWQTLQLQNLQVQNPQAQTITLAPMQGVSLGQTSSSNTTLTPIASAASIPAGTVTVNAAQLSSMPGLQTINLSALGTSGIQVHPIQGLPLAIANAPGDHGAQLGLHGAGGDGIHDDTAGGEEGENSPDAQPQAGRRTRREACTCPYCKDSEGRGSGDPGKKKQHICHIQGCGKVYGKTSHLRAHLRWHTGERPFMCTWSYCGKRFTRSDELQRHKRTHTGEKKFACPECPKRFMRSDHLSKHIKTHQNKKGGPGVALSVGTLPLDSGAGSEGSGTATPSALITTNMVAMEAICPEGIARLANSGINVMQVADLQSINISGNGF

Key:
[1] = target: T1, geminin (human (endogenous in HME cells)) (UniProt O75496); assay: co-IP; total cellular proteins of sonicated HME cells synchronised in G0/G1, S, G2/M and M/G1; immunoprecipitated with anti-Cdc7, anti-geminin, anti-Sp1 (negative control) or anti-TopoIIα antibodies, then immunoblotted
T1 sequence: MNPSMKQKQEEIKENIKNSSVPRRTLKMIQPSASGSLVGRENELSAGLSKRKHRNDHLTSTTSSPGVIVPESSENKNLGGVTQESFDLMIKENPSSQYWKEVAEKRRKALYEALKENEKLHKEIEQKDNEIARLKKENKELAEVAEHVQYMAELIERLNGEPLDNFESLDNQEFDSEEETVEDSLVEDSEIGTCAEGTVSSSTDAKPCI

[2] = target: topoisomerase IIα (human (endogenous in HME cells)) (UniProt P11388); assay: co-IP; whole cell extracts of HME or induced Gem9 (geminin-overexpressing) cells; immunoprecipitated with anti-TopoIIα antibody, then immunoblotted
[3] = target: topoisomerase IIα (human (endogenous in HME cells)) (UniProt P11388); assay: co-IP; total cellular proteins of sonicated HME cells synchronised in G0/G1, S, G2/M and M/G1; immunoprecipitated with anti-Cdc7, anti-geminin, anti-Sp1 (negative control) or anti-TopoIIα antibodies, then immunoblotted

| binding [1] | binding [2] | binding [3] | Substance |
| --- | --- | --- | --- |
| no binding |  |  | cell division cycle 7 (from UniProt O00311 1-574) (enzyme) |
|  | binds |  | RAN binding protein 2/ubiquitin-conjugating enzyme 9 complex (from UniProt P49792 1-3224; P63279 1-158) |
| no binding |  | no binding | Sp1 (from UniProt P08047 1-785) |
